# According to patent EP4574844A1:
# The chains behind the UniProt entries cited, without tags or fusion partners. Where a name states a change or a piece, a line headed by the entry shows the natural chain unless it says otherwise. A line that says so, or that is headed by a name, gives the form on record, which may keep a tag or linker.
# recombinant cynomolgus PDL1 (G7PSE7, form named): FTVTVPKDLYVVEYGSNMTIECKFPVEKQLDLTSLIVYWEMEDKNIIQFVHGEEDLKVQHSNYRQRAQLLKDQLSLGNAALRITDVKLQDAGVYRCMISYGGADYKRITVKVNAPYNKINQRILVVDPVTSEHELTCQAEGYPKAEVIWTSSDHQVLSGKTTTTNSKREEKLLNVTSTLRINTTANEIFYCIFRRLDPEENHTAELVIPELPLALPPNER
# Positions count from the first letter of the chain named. No constants are given. Whether binding was seen depends on the method and setting. Some binding calls cover weakened binding; strength is not graded here.
# B1: PRO4245 (scFv)
# scFv: DIQMTQSPSSLSASVGDRVTITCQASQSIGTYLAWYQQKPGKPPKLLIYRGGILASGVPSRFSGSGSGTDFTLTISSLQPEDFATYYCQSNFYSDSTTIGPNAFGTGTKVTVLGGGGGSGGGGSGGGGSGGGGSQQLVESGGGLVQPGGSLRLSCAASGFSFNSDYWIYWVRQAPGKGLEWIASIYGGSSGNTQYASWAQGRFTISKDNSKNTVYLQMNSLRAEDSAVYFCARGYVDYGGATDLWGQGTLVKVSS
# B2: PRO1347 (scFv)
# scFv: DIQMTQSPASLSASVGDRVTITCQASQSIGTYLAWYQQKPGKPPKLLIYRAFILASGVPSRFSGSGSGTDFTLTISSLQPEDFATYYCQSNFYSDSTTIGPNAFGTGTKVTVLGGGGGSGGGGSGGGGSGGGGSEVQLVESGGGLVQPGGSLRLSCAASGFSFNSDYWIYWVRQAPGKGLEWIACIYGGSSGNTQYASWAQGRFTISRDNSKNTVYLQMNSLRAEDTAVYFCARGYVDYGGATDLWGQGTLVTVSS
# B3: PRO2230 (scFv)
# scFv: B2 scFv with C185S
# B4: PRO1392 (scFv)
# scFv: DIQMTQSPSSLSASVGDRVTITCQASQSINDYLAWYQQKPGKAPKLLIYKASTLASGVPSRFSGSGSGTDFTLTISSLQPEDFATYYCQQGYIITDIDNVFGTGTKVTVLGGGGGSGGGGSGGGGSGGGGSQVQLQESGPGLVKPSETLSLTCKASGFSFSSGYDMCWVRQPPGKGLEWIACVVAGSVDITYYASWAKGRVTISKDSSKNQVSLKLSSVTAADTAVYYCARKDAYSDAFNLWGQGTLVTVSS
# B5: PRO3891 (scFv)
# scFv: B4 scFv with A51G, S52G, T224S, T249K
# Biological target: recombinant cynomolgus PDL1 (cynomolgus monkey) (UniProt G7PSE7)
# Assay: SPR
row,binding,Binder
1,binds,B1
2,binds,B2
3,binds,B3
4,binds,B4
5,binds,B5
